Source: PubChem BioAssay AID743454 (Peter MacCallum Cancer Centre, 2014)

Aim: 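Search for knock-downs that restore vorinostat killing in resistant colon cancer cells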 (primary screen)
Cells: human HCT116-VR colon cancer cells, selected for vorinostat resistance
Reagents: siRNA pool against human genes, 40 nM siRNA pool
Duration: vorinostat for 24 h, read-out about 72 h after transfection
Challenge: vorinostat at 2.5 µM final
Detection: 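Two measures, CellTiter-Fluor viability and luminescent caspase 3/7 activity, each as fold change against same-plate mock wells, mean of duplicates, then screen-wide robust z-score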
Scale: viability robust z-score: higher = more viable cells than screen typical; caspase robust z-score: higher = more caspase 3/7 activity than screen typical
Call rule: 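Hits are knock-downs in viability class RV1/RV2 or caspase class CA1/CA2, excluding ones that killed cells in the no-drug cell-count arm; hits then retested with single siRNAs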
Here is a random part of about 18,000 reagents tested. In the full data, 450 (2.5%) got an active call. 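Single biological run; no consistent viability z cut-off exists, so the class columns, not z-scores, define the calls.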 Entries without a mark were called inactive.

| gene symbol | viability hit class | caspase hit class | viability robust z-score | caspase robust z-score |
| --- | --- | --- | --- | --- |
| FXYD3 (GeneID 5349) | no change | no change | -0.02 | 0.96 |
| USP28 (GeneID 57646) | no change | no change | -0.74 | 0.16 |
| ERBB4 (GeneID 2066) | no change | no change | -1.36 | 3.1 |
| FAM180A (GeneID 389558) | no change | no change | 1.46 | -0.86 |
| RNF39 (GeneID 80352) | no change | no change | -0.22 | 0.8 |
| HMGCS2 (GeneID 3158) | no change | no change | -1.75 | -0.45 |
| SLC13A1 (GeneID 6561) | no change | no change | 1.32 | 0.08 |
| SNRNP70 (GeneID 6625) | no change | no change | -2.99 | 1.34 |
| FBXO17 (GeneID 115290) | no change | no change | -1.01 | 1.53 |
| TLX3 (GeneID 30012) | no change | no change | 0.01 | -0.92 |
| NACC1 (GeneID 112939) | no change | no change | -1.4 | 0.92 |
| RRN3 (GeneID 54700) | no change | no change | -2.72 | 0.68 |
| SLC44A3 (GeneID 126969) | no change | no change | 0.18 | -0.03 |
| B4GALNT2 (GeneID 124872) | no change | no change | -0.73 | -0.86 |
| LOC652591 (retired record) (GeneID 652591) | no change | no change | -0.62 | 0.46 |
| HGH1 (GeneID 51236) | no change | no change | -0.47 | 1.36 |
| FANCF (GeneID 2188) | no change | no change | 1.07 | 0.66 |
| DNLZ (GeneID 728489) | no change | no change | -0.86 | 0.4 |
| MYOZ3 (GeneID 91977) | no change | no change | 1.27 | 0.86 |
| AGAP1 (GeneID 116987) | no change | no change | 0.6 | -0.44 |
| DEFB119 (GeneID 245932) | no change | no change | -1.17 | 0.64 |
| ELOVL1 (GeneID 64834) | no change | no change | -0.96 | 2.56 |
| MAP2K1 (GeneID 5604) | no change | no change | -0.29 | 1.45 |
| SERPINB5 (GeneID 5268) | no change | no change | 0.76 | 1.1 |
| CCDC3 (GeneID 83643) | no change | no change | 0.11 | -0.6 |
| OPN4 (GeneID 94233) | no change | no change | 0.1 | 0.76 |

The list goes on (4 carried over from the part before).
| gene symbol | viability hit class | caspase hit class | viability robust z-score | caspase robust z-score |
| --- | --- | --- | --- | --- |
| MAP2K1 (GeneID 5604) | no change | no change | -0.29 | 1.45 |
| SERPINB5 (GeneID 5268) | no change | no change | 0.76 | 1.1 |
| CCDC3 (GeneID 83643) | no change | no change | 0.11 | -0.6 |
| OPN4 (GeneID 94233) | no change | no change | 0.1 | 0.76 |
| ETV5 (GeneID 2119) | no change | no change | -0.88 | 1.75 |
| ZNF160 (GeneID 90338) | no change | no change | -0.48 | -0.89 |
| PGM3 (GeneID 5238) | no change | no change | 1.98 | 0.15 |
| CORO1C (GeneID 23603) | no change | no change | -1.36 | 3.88 |
| PITX3 (GeneID 5309) | no change | no change | -0.76 | 3.45 |
| DCAF17 (GeneID 80067) | no change | no change | -1.55 | 1.45 |
| AOX1 (GeneID 316) | no change | no change | -2.29 | 2.71 |
| AMPD3 (GeneID 272) | no change | no change | 0.6 | -0.73 |
| RP1 (GeneID 6101) | no change | no change | 1 | -0.1 |
| ACADS (GeneID 35) | no change | no change | 2.13 | 0.02 |
| SQSTM1 (GeneID 8878) | no change | no change | -0.22 | -0.08 |
| RAB11FIP1 (GeneID 80223) | no change | no change | 0.75 | -0.26 |
| PIAS4 (GeneID 51588) | no change | no change | -1.76 | 1.84 |
| TSPAN6 (GeneID 7105) | no change | no change | 1.69 | -0.02 |
| PLBD1 (GeneID 79887) | no change | no change | -0.92 | 2.96 |
| OTUD6B (GeneID 51633) | no change | no change | -0.12 | -0.97 |
| LRRC8A (GeneID 56262) | no change | no change | -0.12 | -0.48 |
| CACNG5 (GeneID 27091) | no change | no change | 0.47 | 0.18 |
| AP4B1 (GeneID 10717) | no change | no change | 1.22 | -0.86 |
| STAMBPL1 (GeneID 57559) | no change | no change | -1.82 | 2.32 |
| SETD9 (GeneID 133383) | no change | no change | 0.77 | 1.5 |
| P2RY11 (GeneID 5032) | no change | no change | -0.22 | -0.98 |
| SLC39A3 (GeneID 29985) | no change | no change | -0.45 | 1.31 |
| ZFP2 (GeneID 80108) | no change | no change | 1.84 | -0.36 |
| SRRD (GeneID 402055) | no change | no change | 0.02 | -0.98 |
| FKBP3 (GeneID 2287) | no change | no change | -2.12 | 1.06 |
| KCNK4 (GeneID 50801) | no change | no change | -2.24 | 2.88 |
| OR4F17 (GeneID 81099) | no change | no change | -0.24 | 0.25 |
| SEC22A (GeneID 26984) | no change | no change | 1.05 | 0.77 |
| ENTPD4 (GeneID 9583) | no change | no change | -0.19 | -0.04 |
| NELFCD (GeneID 51497) | no change | no change | -0.66 | -0.21 |
| ARMH3 (GeneID 79591) | no change | no change | 1.02 | -0.16 |
| DTX1 (GeneID 1840) | no change | no change | -1.29 | 3.02 |
| SNX8 (GeneID 29886) | no change | no change | -0.27 | 1.08 |
| STOML1 (GeneID 9399) | no change | no change | 0.07 | 1.21 |
| FAM167A (GeneID 83648) | no change | no change | -0.74 | 0.96 |
| REEP5 (GeneID 7905) | no change | no change | -0.33 | -0.9 |
| BFSP2 (GeneID 8419) | no change | no change | 0.05 | 1.65 |
| DEPTOR (GeneID 64798) | no change | no change | 0.29 | -1.27 |
| CHST5 (GeneID 23563) | no change | no change | -0.22 | -0.52 |
| RPL10 (GeneID 6134) | no change | no change | -4.57 | -1.5 |
| TRIM13 (GeneID 10206) | no change | no change | -0.11 | -0.9 |
| PLIN1 (GeneID 5346) | no change | no change | 0.65 | -0.05 |
| CHAF1B (GeneID 8208) | no change | no change | -1.77 | -0.69 |
| TIE1 (GeneID 7075) | no change | no change | 0.09 | -0.33 |
| TRAK1 (GeneID 22906) | no change | no change | -1.62 | 0.24 |
| GGT1 (GeneID 2678) | no change | no change | 0.24 | 1.51 |
